# Test results taken from PubChem BioAssay AID504444 (National Center for Advancing Translational Sciences (NCATS), 2011).
# Out of some 360,000 compounds screened, about 7,500 (2.1%) were called active. This list was built around the results that the source calls inconclusive (neither active nor inactive); the mix of calls is not that of the screen. The call rests on the fitted dose curve; in most records, active means well fitted inhibition curve with a large enough effect; inconclusive means small, poorly fitted or top-dose-only effect, or effect the other way; inactive means flat fitted curve, though single readings scatter. A potency beside an inconclusive call is a rough fit, not a confirmed value.
# Experiment: Nrf2 qHTS screen for inhibitors; further: nearly all actives have a fitted effect of over 60% in size
# Conditions: A549 ARE-Fluc reporter, luciferase luminescence, 18-24 h; series mostly up to 46 µM
# Procedure, shortened: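 Nrf2 activity is the BugLite luminescence, read 15 min after reagent at room temperature, following CellTiter-Fluor cytotoxicity readout (30 min, 37C). Compound titrations were applied for 18-24 h to 5000 A549 ARE_Fluc cells/well in 5% FBS OPTI-MEM.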
# Potency means the concentration at half of the fitted maximal effect.
row,SMILES,Potency
1,c1ccc(-c2cn3nc4c(nc3n2)CCCC4)cc1,"inconclusive: 14.6 µM [falling, single point]"
2,C=C(C)CSc1nnc([C@@H](NC(=O)OC(C)(C)C)C(C)CC)o1 (stereo partly drawn),"inconclusive: 18.4 µM [falling, single point]"
3,Cc1ccccc1OCC(=O)NNC(=S)NC(=O)c1ccccc1[N+](=O)[O-],"inconclusive: 23.1 µM [falling, partial curve, poor fit]"
4,COc1ccc(-c2ccc(S(=O)(=O)NCC3CCCO3)cc2)cc1 (stereo not drawn),"inconclusive: 14.6 µM [falling, partial curve]"
5,CCC(Oc1cc(Cl)ccc1Cl)C(=O)NN1C(=O)C2C3CCC(C3=C(C)C)C2C1=O (stereo not drawn),"inconclusive: 18.4 µM [falling, partial curve, poor fit]"
6,O=C1CCCc2c1sc1nc3n(c(=O)c21)CCCCC3,"inconclusive: 8.2 µM [activator, partial curve, poor fit]"
7,Cc1n(N)c2ccccc2[n+]1CC(=O)c1ccccc1,"inconclusive: 29.1 µM [falling, single point]"
8,Cc1ccccc1Cn1c(=O)n(CCCCC(=O)NCc2ccccc2Cl)c(=O)c2ccccc21,inactive
9,O=C(c1ccco1)N1CCN(Cc2cc(=O)c(OCc3cccc(Cl)c3)co2)CC1,"inconclusive: 0.0259 µM [falling, full curve, poor fit]"
10,O=C(Nc1ccc(S(=O)(=O)Nc2cnc3ccccc3n2)cc1)c1ccc(F)cc1,"inconclusive: 29.1 µM [falling, single point]"
11,COc1ccc(-c2nnc(SC(C)C(=O)Nc3nccs3)n2Cc2ccccc2)cc1OC (stereo not drawn),"inconclusive: 9.2 µM [falling, partial curve]"
12,O=C(Nc1ccc(Cl)cc1)c1cccc(OC(=S)N2CCOCC2)c1,active: 23.1 µM
13,CN(C(=S)Nc1ccc(Oc2ccccc2)cc1)C1CCCCC1,"inconclusive: 20.6 µM [activator, partial curve, poor fit]"
14,C=CCn1c(CCNC(=O)c2ccccc2F)nnc1SCc1nc2ccccc2c(=O)[nH]1,"inconclusive: 0.0651 µM [falling, full curve, poor fit]"
15,CCOC(=O)c1c(C)oc2nc(C)nc(NCCCN3CCN(c4cc(Cl)ccc4C)CC3)c12,"inconclusive: 23.1 µM [activator, single point]"
16,O=C(CCCN1CCC(O)(c2cccc(C(F)(F)F)c2)CC1)c1ccc(F)cc1,inactive
17,CC(C)c1cc2c(c(O)c1O)[C@@]13CCCC(C)(C)C1CC2OC3=O (stereo partly drawn),inactive
18,O=C(NNC(=O)c1cc(OCC(F)(F)F)ccc1OCC(F)(F)F)c1ccc(Cl)c(Cl)c1,"inconclusive: 29.1 µM [falling, single point]"

# From compound 5 to 6, copied from above:
row,SMILES,Potency
5,CCC(Oc1cc(Cl)ccc1Cl)C(=O)NN1C(=O)C2C3CCC(C3=C(C)C)C2C1=O (stereo not drawn),"inconclusive: 18.4 µM [falling, partial curve, poor fit]"
6,O=C1CCCc2c1sc1nc3n(c(=O)c21)CCCCC3,"inconclusive: 8.2 µM [activator, partial curve, poor fit]"
